From PubChem BioAssay AID2685 (National Center for Advancing Translational Sciences (NCATS), 2010) come the findings set out here.

The nature of the assay: qHTS Assay for Lipid Storage Modulators in Drosophila S3 Cells.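 As to cell number change: cells counted by Cell Tracker Red CMTPX staining in the red channel.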 Particulars: BODIPY lipid droplet fluorescence, 18-24 h; for cell number change: measured here: cell count max response, cells fed with added oleic acid. In short, it runs like this: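 Drosophila S3 cells got compounds at several concentrations plus oleic acid (400 uM solution). Laser-scanning cytometry with 488 nm excitation read lipid droplets at 500-530 nm and cells at 575-640 nm. Percent activity was relative to 20 uM Triacsin C.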
For orientation: In qHTS, concentration-response curves come from the screen itself.

[1] abbreviates: measured here: cell number channel AC50, cells fed with added oleic acid.
[2] abbreviates: measured here: lipid fluorescence (Fed channel) AC50, cells fed with added oleic acid.

This is one part of the list. Shown are side measurements of this screen, not its main read-out; they come without a call. Most of these compounds were active or inconclusive in the main read-out, so they are no random draw. Potencies come from curve fits of mixed quality, noted in brackets.

A word on the AC50: it is the concentration giving half of the maximal activity seen.

Consider `O=C(Nc1cccc(Cl)c1)Nc1nc(-c2ccccc2)cs1`, for which the cell number change is -54.9%. For the same molecule, the AC50 under setting [1] is 18.4 µM [falling, partial curve, poor fit]. For the same molecule, the AC50 under setting [2] was 20.6 µM [falling, partial curve, poor fit].
On to `O=C(CCN1CCc2ccccc2C(c2ccccc2)C1)c1ccc2c(c1)OCCO2` (centres undefined), for which the cell number change was -89.9%. In addition, the AC50 under setting [1] is 29.1 µM [falling, single point].
As for `Cc1ccc(S(=O)(=O)N2CCC(=O)N(CCOC(=O)Nc3ccccc3C)CC2)cc1`, the cell number change was -0.104%. In addition, the AC50 under setting [2] is 0.92 µM [rising, partial curve].
On to `CC(=O)Nc1ccc(-c2nn[nH]n2)cc1`, for which the cell number change was found to be 25.9%. Also, the AC50 under setting [2] was 0.291 µM [rising, full curve, poor fit].
On to `COc1ccc(CCNC(=O)Cn2nnc(-c3ccc(N4CCOCC4)cc3)n2)cc1OC`, for which the cell number change is -80.2%. Also, the AC50 under setting [1] is 0.291 µM [falling, full curve]. For the same molecule, under setting [2], the AC50 is 0.259 µM [falling, full curve].
As to `C=C1CSc2nc(=O)c3c(C)c(C)sc3n21`, the cell number change is 1.68%.
`O=C(NCc1ccc2c(c1)OCO2)C(c1ccco1)N(C(=O)c1csnn1)c1ccccc1` (centres undefined): the cell number change was determined as 39.6%. Moreover, the AC50 under setting [1] is 2.31 µM [rising, partial curve]. Also, the concentration at half-maximal activity (AC50) under setting [2] is 1.03 µM [rising, single point].
For `COC(=O)c1ccc(Nc2cc(C)nc3ccc(C)cc23)cc1`, the cell number change was -30.5%. In addition, the AC50 under setting [1] was 29.1 µM [falling, single point]. Under setting [2], the AC50 is 25.9 µM [falling, partial curve, poor fit].
In the case of `COc1ccc(CCC(=O)N(c2nnc(-c3cccnc3)s2)C(C)C)cc1`, the cell number change is 25.5%. The AC50 under setting [1] is 6.51 µM [rising, partial curve, poor fit].
On to `CC1CCCC(N2CCN(C(=O)c3ccc([N+](=O)[O-])cc3)CC2)C1` (centres undefined), for which the cell number change is -5.03%.
In the case of `CN1C(=O)/C(=C2\SC(N)=NC2=O)c2ccccc21`, under setting [2], the AC50 is 16.4 µM [falling, single point].
For `CC(C)(C)c1ccc(C(=O)NC(=S)N2CCCCCC2)cc1`, the cell number change is -18.7%. For the same molecule, under setting [1], the AC50 is 3.66 µM [rising, single point]. Besides, the AC50 under setting [2] was 29.1 µM [falling, single point].
Turning to `COC(=O)c1ccc(OC(=O)CN2C(=O)c3ccccc3C2=O)cc1`, the cell number change turned out to be 20.3%.
Consider `CC(C)=CC(=O)Nc1ccccc1Br`, for which the half-maximal activity concentration (AC50) under setting [2] is 6.51 µM [falling, single point].
Regarding `Cc1cccc2c1OCC/C2=N\NC(=O)COc1ccccc1Cl`, the cell number change was found to be 11.2%. For the same molecule, the AC50 under setting [2] was 0.82 µM [falling, full curve, poor fit].
Turning to `CC12C=CC(=O)C=C1CCC1C3CCC(O)(C(=O)CO)C3(C)CC3OC312` (centres undefined), the cell number change is -4.94%. In addition, the AC50 under setting [2] was 0.092 µM [falling, full curve, poor fit].
Consider `S=c1[nH]nc(C2CCCCC2)n1/N=C/C=C/c1ccccc1`, for which the cell number change was -25.6%. Further, the AC50 under setting [2] was 10.3 µM [falling, partial curve, poor fit].
In the case of `O=C(CSc1ncnc2nc[nH]c12)c1ccc2ccccc2c1`, the cell number change is -24.6%. Moreover, the AC50 under setting [2] is 23.1 µM [falling, single point].
Consider `CCc1ccc(/C=C2/Sc3ccccc3N(CC(=O)NCCCN3CCOCC3)C2=O)cc1`, for which the half-maximal activity concentration (AC50) under setting [1] was 4.61 µM [rising, single point].
`COc1ccc2nc(SCC(=O)NC3CCCCC3C)[nH]c2c1` (centres undefined): under setting [2], the half-maximal activity concentration (AC50) was 32.6 µM [falling, partial curve].
As to `Cc1ccc2cc(CCNC(=O)c3cccs3)c(=O)[nH]c2c1C`, the cell number change is -4.37%. The AC50 under setting [2] is 6.51 µM [falling, single point].
Take `COc1ccccc1N1CCN(S(=O)(=O)CCNC(=O)c2cc(OC)c(OC)c(OC)c2)CC1`: the cell number change is 91%. Further, the concentration at half-maximal activity (AC50) under setting [1] is 29.1 µM [rising, single point]. Also, the AC50 under setting [2] is 29.1 µM [rising, single point].
Take `CCC(C)(C)NC(=O)CN(C(=O)c1snc(C(N)=O)c1N)c1ccc2c(c1)OCO2`: the AC50 under setting [1] is 2.06 µM [rising, partial curve] and the AC50 under setting [2] was 0.58 µM [rising, single point].
Regarding `CC1CCC2C(=O)N(c3ccc(NC4CCN(Cc5ccccc5)CC4)c([N+](=O)[O-])c3)C(=O)C2C1` (centres undefined), the cell number change was found to be 45.6%. The AC50 under setting [1] is 14.6 µM [rising, single point].
Take `Cc1ccc(S(=O)(=O)N2CCCCC2)cc1C(=O)N1CCN(CCO)CC1`: the cell number change is -9.94%. Under setting [2], the AC50 was 0.00461 µM [rising, full curve, poor fit].
As for `Cc1ccc(SCC(=O)N2CC(C)OC(C)C2)cc1` (centres undefined), the cell number change was -47%. Also, the AC50 under setting [1] is 29.1 µM [falling, single point].
Regarding `Clc1ccc(CSc2nnc([C@@H]3CCCN3)o2)cc1Cl`, the half-maximal activity concentration (AC50) was 2.91 µM [rising, single point] under setting [1] and 0.92 µM [rising, full curve, poor fit] under setting [2].
Take `CCOc1ccc(NC(C)c2cc(Cl)ccc2O)cc1` (centres undefined): the cell number change is -94.4%. In addition, the AC50 under setting [2] is 3.26 µM [falling, partial curve].
As to `N#CCCN1CCCc2cc(N=Nc3ccc(C(F)(F)F)cc3)ccc21`, the cell number change is -61.7%. Further, the AC50 under setting [1] was 2.06 µM [falling, full curve]. The AC50 under setting [2] is 2.06 µM [falling, full curve].
Take `O=c1cc(O)c2sc(Nc3ccc(F)cc3)nc2[nH]1`: the cell number change is -19.1%.
For `N#CC1=C(N)Nc2ncnn2C1c1ccccc1` (centres undefined), the cell number change is -33.3%. For the same molecule, the AC50 under setting [1] is 0.291 µM [falling, partial curve, poor fit].
On to `O=C(CSc1nnc(CNC(=O)c2c(F)cccc2F)o1)NCc1ccco1`, for which the cell number change was -14%. The concentration at half-maximal activity (AC50) under setting [2] was 0.82 µM [rising, full curve, poor fit].
`CCCCn1c(=O)[nH]c(=O)c2c1nc(-c1cc(Cl)c(OC)c(OC)c1)n2C`: the cell number change was found to be 19.8%.
Take `COc1ccccc1CN(C)C(=O)C(NC(=O)Cc1cccc2ccccc12)C(C)C` (centres undefined): the cell number change was -12.7%. Moreover, the AC50 under setting [2] is 0.651 µM [falling, single point].
Regarding `O=C(/C=C/c1ccco1)NC(=S)Nc1cc(C(F)(F)F)ccc1N1CCOCC1`, the cell number change was 27.4%. Further, the AC50 under setting [2] was 13 µM [rising, single point].
With `COC(=O)c1sccc1NC(=S)N1CCCCC1C` (centres undefined), the AC50 by setting is: under setting [1], 0.651 µM [rising, single point]; under setting [2], 0.411 µM [rising, partial curve, poor fit].
`O=C(c1ccc(S(=O)(=O)Nc2ccccc2)cc1)N1CCCCCCC1`: the cell number change stood at 45.4%. Besides, the half-maximal activity concentration (AC50) under setting [1] was 14.6 µM [rising, partial curve].
`CCCCN(C(=O)c1cc(Cl)nc2ccccc12)c1c(N)n(CCCC)c(=O)[nH]c1=O`: the cell number change is -9.72%.
Consider `CC(=O)c1ccc(NC(=O)CSc2n[nH]c(-c3cccnc3)n2)cc1`, for which the cell number change was found to be 5.41%. Further, the AC50 under setting [2] was 6.51 µM [falling, partial curve, poor fit].
In the case of `CCN(CC)C(CNC(=O)c1cc(=O)[nH]c2ccccc12)c1ccccc1Cl` (centres undefined), the cell number change was found to be 10.3%. For the same molecule, the AC50 under setting [2] is 6.51 µM [rising, single point].
Turning to `CCCCCc1ccc(S(=O)(=O)NCCc2ccncc2)cc1`, the cell number change is -3.05%.
On to `COc1ccc(NC(=O)Cc2c(SC)c3ccccc3n2Cc2ccccc2)cc1`, for which the cell number change amounted to 0.1%. For the same molecule, the half-maximal activity concentration (AC50) under setting [2] is 0.259 µM [falling, full curve, poor fit].
For `Cn1ccnc1C(O)c1ccc(OCc2ccccc2)cc1` (centres undefined), the cell number change was determined as 14.9%. Also, the AC50 under setting [2] is 14.6 µM [rising, partial curve].
Turning to `CCn1nc(C(=O)OCC(=O)N2CC(=O)Nc3ccccc32)c2ccccc2c1=O`, the cell number change amounted to 5.08%.
With `COC(=O)CSc1nnc(-c2ccco2)n1-c1ccc(C)cc1`, the cell number change came to 3.31%. Further, the AC50 under setting [2] is 0.092 µM [rising, full curve, poor fit].
Take `Cn1cc(/C=N/n2cnc3scc(-c4ccccc4)c3c2=O)c2ccccc21`: the cell number change is -8.62%. Further, the AC50 under setting [2] was 3.66 µM [rising, single point].
Take `Cc1cc(C)nc(SCc2ccc(C(=O)N/N=C/c3ccco3)cc2)n1`: under setting [2], the AC50 is 11.6 µM [rising, partial curve, poor fit].
Take `CCN(CC)c1ccc(C=Nc2ccccc2C)c(O)c1`: the cell number change was -109%. Besides, the AC50 under setting [1] is 25.9 µM [falling, partial curve].
For the molecule `COc1ccc(-c2c(C(F)(F)F)nn(C)c2NC(=O)CSCC(=O)O)cc1`, the cell number change was found to be 20.1%. In addition, the AC50 under setting [2] was 16.4 µM [falling, partial curve, poor fit].
Turning to `Oc1c(Br)cc(Br)cc1/C=N/N1CCN(Cc2ccccc2)CC1`, the cell number change was found to be 3.92%. Besides, the concentration at half-maximal activity (AC50) under setting [2] was 0.58 µM [rising, single point].
As to `CCOC(=O)N1CCC(NC(=O)c2cc(C(=O)Nc3cccc(OC)c3)ccc2CO)CC1`, the cell number change is -52.6%. Also, the concentration at half-maximal activity (AC50) under setting [1] is 32.6 µM [falling, single point].
For `Cc1cccc(NC(=O)CN2C(=O)N/C(=C/c3ccc(C)s3)C2=O)c1`, the cell number change worked out at 15.6%.
Consider `CCN1CCN(CCCNC(=O)c2cc3c(=O)oc4ccc(C)cc4c3s2)CC1`, for which the cell number change came out at 3.54%. Also, the AC50 under setting [2] was 6.51 µM [rising, single point].
Take `COc1ccccc1OCc1ccc(C(=O)N2CCN(C(=O)c3ccco3)CC2)cc1`: the cell number change is -0.0393%. For the same molecule, the AC50 under setting [2] is 0.651 µM [rising, full curve].
As for `O=C(NCc1ccccc1)c1cccc(S(=O)(=O)N2CCCCC2)c1`, the cell number change stood at 37.5%. The AC50 under setting [1] is 1.16 µM [rising, full curve, poor fit].
As to `O=C(CSc1nnc(NC(=O)C2CCC2)s1)Nc1ccccc1F`, the cell number change came to 16%. The AC50 under setting [1] was 0.731 µM [rising, full curve, poor fit].
As for `NS(=O)(=O)c1cccc(NC(=O)CSc2nn(-c3ccccc3)c(=S)s2)c1`, the cell number change was 35.5%. Under setting [1], the AC50 was 10.3 µM [rising, partial curve]. For the same molecule, under setting [2], the AC50 is 5.8 µM [rising, partial curve].
For `Cn1cnnc1Sc1ccc(C(=O)OCC(=O)NC2CC2)cc1[N+](=O)[O-]`, the cell number change was -13.1%.
With `CC(=O)Nc1ccc(NC(=O)C(C)OC(=O)c2ccc(-n3cnnn3)cc2)cc1` (centres undefined), the cell number change was -26.4%. Further, the concentration at half-maximal activity (AC50) under setting [2] is 29.1 µM [falling, single point].
Consider `Cc1ccc(Nc2nc(N)c([N+](=O)[O-])c(N3CCC(C)CC3)n2)cc1C`, for which the cell number change is -55%. In addition, under setting [1], the AC50 was 32.6 µM [falling, single point]. For the same molecule, the half-maximal activity concentration (AC50) under setting [2] is 29.1 µM [falling, single point].
